The other results are listed elsewhere or left out.

In this experiment the target is T1, OsSMF1 (Oryza sativa, UniProt Q6ZLB0 1-436).
T1 sequence: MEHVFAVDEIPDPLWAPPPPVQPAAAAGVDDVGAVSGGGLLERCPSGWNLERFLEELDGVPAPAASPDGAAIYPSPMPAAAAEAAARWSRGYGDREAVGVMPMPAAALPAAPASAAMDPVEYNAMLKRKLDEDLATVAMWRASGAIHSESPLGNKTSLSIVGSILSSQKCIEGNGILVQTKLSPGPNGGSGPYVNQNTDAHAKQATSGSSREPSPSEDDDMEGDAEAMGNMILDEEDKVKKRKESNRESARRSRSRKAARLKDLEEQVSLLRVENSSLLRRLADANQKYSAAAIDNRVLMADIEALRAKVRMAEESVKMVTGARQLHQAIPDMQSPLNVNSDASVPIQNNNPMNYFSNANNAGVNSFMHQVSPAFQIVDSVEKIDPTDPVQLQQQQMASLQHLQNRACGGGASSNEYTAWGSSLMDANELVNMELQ
In words: protein-binding microarray (RPBM); PBS, 2% BSA, 51.3 ng/ul salmon testes DNA, 50 uM zinc acetate, 200 nM TF, 25 C, 1 h; high values mean tight binding. The conditions noted are these: protein: recombinant; tags: N-terminal polyhistidine and DsRed monomer fusion (pET32a); chain copies: 2; label: CyDye5-dUTP incorporated in the synthesized complementary strand; 3' TTTTT single-stranded linker to array surface; dsDNA, one strand shown. The gist of the method:
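The binding signal is fluorescence intensity per array feature (arbitrary units). Readings came from an Axon 4000B scanner after a washed, 2% BSA-blocked, double-stranded custom Agilent array had been incubated for 1 h at 25 °C with 200 nM protein and 50 µM zinc acetate. The protein was a Ni–NTA-purified transcription factor fused N-terminally to polyhistidine and DsRed, expressed in E. coli BL21-CodonPlus.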
With “TGAAAACCAGCAGCAGTCGTCATCGATCTCGAGCGCCACACGGAGTCACCTAGTGCAG”, the binding signal was 3330 fluorescence intensity (a.u.).
The result for “ATAAACTCTTTGGACCGCCGGTCAGCGTACATCCATTGCCCGGAGTCACCTAGTGCAG” reads 3520 fluorescence intensity (a.u.); that for “CACGTGAATTATGTATGACGAGATCGTGACTTATTTCTGACGGAGTCACCTAGTGCAG”, 5640 fluorescence intensity (a.u.).
Then “TTCTCTCTCTCCTGTGTTTTGTCTACCACGTTCTCAACCCCGGAGTCACCTAGTGCAG”, with 3190 fluorescence intensity (a.u.); and “AAAGTTCTAATGAGGATAATGGAAATGCTGACCTGGCTTCCGGAGTCACCTAGTGCAG”, with 11600 fluorescence intensity (a.u.).
Then “ACAGACTTGTTTAAGTTACAAGACGATACTATAAGAATTTCGGAGTCACCTAGTGCAG”, with 41100 fluorescence intensity (a.u.); and “TTGATTGACTAAACTGTCACGTCAGCGTCATATTGACGAACGGAGTCACCTAGTGCAG”, with 12600 fluorescence intensity (a.u.); and “CTCACAGGACAGTGATGTGGCGCCAAGTTGCCATGTGGCACGGAGTCACCTAGTGCAG”, with 17400 fluorescence intensity (a.u.).
Take “GCTGAAAAGATATATATGATTCCTCCTCCTCCTCCAGGTACGGAGTCACCTAGTGCAG”: the binding signal is 18700 fluorescence intensity (a.u.).
The result for “CCGCAAGCCTGCACGACACGTGAACACGAAATCCACAAGTCGGAGTCACCTAGTGCAG” reads 3240 fluorescence intensity (a.u.); that for “TGGTTTTGTGAATGCAGTCATCATATAATAAATAAACGTGCGGAGTCACCTAGTGCAG”, 3450 fluorescence intensity (a.u.); that for “ATGGTTCTGATGTCATTGATAGATTTGAGAGAACATGTACCGGAGTCACCTAGTGCAG”, 5100 fluorescence intensity (a.u.).
Then “CTCTCGTCCTCGTCCGCTTCCAGATTCAGATCCACCCATCCGGAGTCACCTAGTGCAG”, with 3290 fluorescence intensity (a.u.); and “GAGCAGGGCGCGACGTGACGGTGGTGGAGTGGCACGACAGCGGAGTCACCTAGTGCAG”, with 3610 fluorescence intensity (a.u.).
The result for “ATTTGGGATGTCTTTATCTCATCCAATTAATCCACGGATACGGAGTCACCTAGTGCAG” reads 49200 fluorescence intensity (a.u.); that for “ATCTCAACAATCAATCGAATTAGACAAACAACTCATCAGGCGGAGTCACCTAGTGCAG”, 3460 fluorescence intensity (a.u.); that for “GGCGGCGATCGTCCCCGTCAACGACGACGACGACGATGATCGGAGTCACCTAGTGCAG”, 4120 fluorescence intensity (a.u.).
Take “TGAATTACTACCGTGTACTCCGATCTCTCTCTGGATATACCGGAGTCACCTAGTGCAG”: the binding signal was 3440 fluorescence intensity (a.u.).
With “ATTTCTCGACTTGCCTGAGATTCAGTTCTCGGTGGGTGATCGGAGTCACCTAGTGCAG”, the binding signal was 17300 fluorescence intensity (a.u.).
The result for “CCTCCACCTCGCCGCCGCCGCTGCTCGCGACCGATCTTCACGGAGTCACCTAGTGCAG” reads 3340 fluorescence intensity (a.u.).
Consider “GCCCGCCCACCCACGTGGGCTCCACGTGTCGCTTCTCCCGCGGAGTCACCTAGTGCAG”, for which the binding signal was 36200 fluorescence intensity (a.u.).
The result for “TGCATCGACGCCACAACAGCCGACAGATGGGAGATGTTGACGGAGTCACCTAGTGCAG” reads 3250 fluorescence intensity (a.u.); that for “TGAATTAAATAATGTGCCATATAATCATCTTTTAGCTGCTCGGAGTCACCTAGTGCAG”, 3740 fluorescence intensity (a.u.); that for “CCAAACCCCACGCACGCCGCGTCGCCGCCTCCTCCTCTCCCGGAGTCACCTAGTGCAG”, 3670 fluorescence intensity (a.u.).
The result for “GATTAATTACCTACCTGCTTACGTCCTCCGTGCTTAAGCACGGAGTCACCTAGTGCAG” reads 3370 fluorescence intensity (a.u.).
Then “GTTGGGGCGCCTCTGGGGCTGTCCACGTCGGATAGCTACACGGAGTCACCTAGTGCAG”, with 20700 fluorescence intensity (a.u.); and “CCAAATTCAATGCCACATATACAGATCACGCAACATTTTACGGAGTCACCTAGTGCAG”, with 4660 fluorescence intensity (a.u.); and “CTCAACAGCAACAGCAACAACACACTTACCAAATTTGTGTCGGAGTCACCTAGTGCAG”, with 3620 fluorescence intensity (a.u.).
Take “GGCCACCTGGCCTCTCCTCAGCAACAGCTCATATTGTTTGCGGAGTCACCTAGTGCAG”: the binding signal was 3260 fluorescence intensity (a.u.).
The result for “ATGTAATTTGTTTTCTTATTAGATTACGTTTAATATTTTACGGAGTCACCTAGTGCAG” reads 3160 fluorescence intensity (a.u.).
For the sequence “CCAAGTAGGGGTCATTTTCTTCAGGTATCAGCTAAAACGGCGGAGTCACCTAGTGCAG”, the binding signal was 3710 fluorescence intensity (a.u.).
The result for “TCTTCGTCGCGTCATGCGCGCCCGGCCACGTTTTCCTCACCGGAGTCACCTAGTGCAG” reads 8800 fluorescence intensity (a.u.).
“CGGTAGGCCAATAGCTGTCGTCTTGCCAGATCTTTATGTCCGGAGTCACCTAGTGCAG”: the binding signal is 3170 fluorescence intensity (a.u.).
As to “TTAATGCAGAATGACGCAGGCGTCCCTCATGTCTCTGGCGCGGAGTCACCTAGTGCAG”, the binding signal was 5200 fluorescence intensity (a.u.).
Take “TCCTTACCCGTCATGTAGTAATGGGTATACCCACGGGCACCGGAGTCACCTAGTGCAG”: the binding signal was 3680 fluorescence intensity (a.u.).
The result for “ACTGTTTGCCCCGTCAGGCCGGCCGCGTGGGCCCCGCACCCGGAGTCACCTAGTGCAG” reads 5380 fluorescence intensity (a.u.); that for “TATTTGTTGGATCTTTCTAATTTCAACCATGACGAGAGCCCGGAGTCACCTAGTGCAG”, 3290 fluorescence intensity (a.u.).
Then “CGCCGCCGCCGCCCTTCTCTTCCTCCTCCGATTGGGTTGGCGGAGTCACCTAGTGCAG”, with 3390 fluorescence intensity (a.u.).
The result for “TCCGCCCGCTCGATCGATCGAAGTCGGCGTCGCTCGCCTCCGGAGTCACCTAGTGCAG” reads 36400 fluorescence intensity (a.u.).
Regarding “ATTAGATCGTCGATGGAGATGACGATGTCGTCGGCGGCGACGGAGTCACCTAGTGCAG”, the binding signal is 3160 fluorescence intensity (a.u.).
Then “TAATGGTGTGTCATCTAGATCCCTAAACTCTCAAAATGCACGGAGTCACCTAGTGCAG”, with 3560 fluorescence intensity (a.u.).
For “GCCAGCGAAGATGGAGAGCGTCGCCTTGCGGGCCCCACGGCGGAGTCACCTAGTGCAG”, the binding signal is 8140 fluorescence intensity (a.u.).

The record behind these values is article PMC7819943, “Rice protein-binding microarrays: a tool to detect cis-acting elements near promoter regions in rice”.
